Measurements reported in US20100292231A1, “Indazole Compounds for Treating Inflammatory Disorders, Demyelinating Disorders and Cancers” (priority 2007, published 2010).

By UniProt entry, the sequences of proteins in these tests, tags left out. Where a name states a change or a piece, a line headed by the entry shows the natural chain unless it says otherwise. Residues count along the entry.
UniProt Q9H1R3, whole entry: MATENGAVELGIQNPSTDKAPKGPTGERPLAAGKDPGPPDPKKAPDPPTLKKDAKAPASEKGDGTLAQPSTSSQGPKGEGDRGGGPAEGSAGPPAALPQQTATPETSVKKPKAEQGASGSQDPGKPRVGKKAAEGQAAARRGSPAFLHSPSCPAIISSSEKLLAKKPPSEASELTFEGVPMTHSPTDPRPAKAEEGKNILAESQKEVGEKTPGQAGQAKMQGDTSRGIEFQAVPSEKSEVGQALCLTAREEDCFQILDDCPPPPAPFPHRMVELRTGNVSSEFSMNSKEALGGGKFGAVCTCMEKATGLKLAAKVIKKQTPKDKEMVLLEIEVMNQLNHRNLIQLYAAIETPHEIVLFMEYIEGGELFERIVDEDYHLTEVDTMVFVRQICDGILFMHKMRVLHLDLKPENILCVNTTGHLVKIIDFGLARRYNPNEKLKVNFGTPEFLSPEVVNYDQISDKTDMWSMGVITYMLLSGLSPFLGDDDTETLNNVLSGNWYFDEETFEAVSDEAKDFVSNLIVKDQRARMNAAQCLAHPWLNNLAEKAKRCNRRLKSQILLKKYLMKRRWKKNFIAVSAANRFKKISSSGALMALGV
UniProt P07333, 20-972 limits assumed: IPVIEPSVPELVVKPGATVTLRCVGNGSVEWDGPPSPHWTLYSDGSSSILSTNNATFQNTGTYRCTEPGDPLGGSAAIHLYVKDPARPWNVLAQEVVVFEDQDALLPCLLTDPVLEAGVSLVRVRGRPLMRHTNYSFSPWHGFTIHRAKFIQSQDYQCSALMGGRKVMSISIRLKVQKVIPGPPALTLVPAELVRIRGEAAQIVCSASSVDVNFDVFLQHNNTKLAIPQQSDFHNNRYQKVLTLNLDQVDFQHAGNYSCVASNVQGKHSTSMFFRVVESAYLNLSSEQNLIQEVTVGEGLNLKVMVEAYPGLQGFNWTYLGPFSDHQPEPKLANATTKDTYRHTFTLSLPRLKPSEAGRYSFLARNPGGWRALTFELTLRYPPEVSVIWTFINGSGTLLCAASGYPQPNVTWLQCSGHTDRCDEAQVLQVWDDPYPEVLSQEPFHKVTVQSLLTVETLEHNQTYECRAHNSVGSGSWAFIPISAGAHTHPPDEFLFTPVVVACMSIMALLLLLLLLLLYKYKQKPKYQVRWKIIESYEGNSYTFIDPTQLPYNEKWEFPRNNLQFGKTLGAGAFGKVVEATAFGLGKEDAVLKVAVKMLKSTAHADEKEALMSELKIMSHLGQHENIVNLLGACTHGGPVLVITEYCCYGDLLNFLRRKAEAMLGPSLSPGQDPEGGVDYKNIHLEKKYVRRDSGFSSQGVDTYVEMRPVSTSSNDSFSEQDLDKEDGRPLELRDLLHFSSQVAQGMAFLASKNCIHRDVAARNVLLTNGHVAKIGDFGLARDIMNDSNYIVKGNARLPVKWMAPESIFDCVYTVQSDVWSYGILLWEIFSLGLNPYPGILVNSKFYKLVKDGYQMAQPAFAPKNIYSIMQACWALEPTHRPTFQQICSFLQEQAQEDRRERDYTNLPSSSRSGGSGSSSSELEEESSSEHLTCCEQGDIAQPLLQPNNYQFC
UniProt P36888, 27-993 limits assumed: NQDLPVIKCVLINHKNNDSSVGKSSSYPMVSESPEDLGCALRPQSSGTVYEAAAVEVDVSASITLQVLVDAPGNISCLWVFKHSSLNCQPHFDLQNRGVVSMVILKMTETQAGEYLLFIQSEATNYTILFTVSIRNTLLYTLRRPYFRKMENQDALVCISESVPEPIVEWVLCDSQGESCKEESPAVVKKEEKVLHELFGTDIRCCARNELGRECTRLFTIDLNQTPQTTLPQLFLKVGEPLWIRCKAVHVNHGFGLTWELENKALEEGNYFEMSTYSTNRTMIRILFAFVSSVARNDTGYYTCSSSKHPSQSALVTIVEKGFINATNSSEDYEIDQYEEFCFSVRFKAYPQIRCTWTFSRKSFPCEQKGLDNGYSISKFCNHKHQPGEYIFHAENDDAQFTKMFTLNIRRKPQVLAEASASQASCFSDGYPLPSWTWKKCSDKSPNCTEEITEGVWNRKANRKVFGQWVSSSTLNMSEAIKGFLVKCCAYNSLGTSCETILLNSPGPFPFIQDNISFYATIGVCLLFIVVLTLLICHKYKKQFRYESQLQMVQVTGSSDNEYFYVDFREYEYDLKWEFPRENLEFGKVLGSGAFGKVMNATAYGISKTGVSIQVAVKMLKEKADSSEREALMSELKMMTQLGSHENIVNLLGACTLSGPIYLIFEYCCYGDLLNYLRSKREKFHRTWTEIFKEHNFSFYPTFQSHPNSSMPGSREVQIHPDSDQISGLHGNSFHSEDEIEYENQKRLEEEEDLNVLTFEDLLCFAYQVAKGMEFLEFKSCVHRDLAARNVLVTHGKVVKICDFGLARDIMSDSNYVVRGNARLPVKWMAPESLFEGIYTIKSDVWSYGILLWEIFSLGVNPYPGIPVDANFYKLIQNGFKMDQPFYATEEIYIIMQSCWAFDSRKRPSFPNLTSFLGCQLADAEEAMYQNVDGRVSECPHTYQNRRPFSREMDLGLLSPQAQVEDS
UniProt P36888, 27-993 D835Y limits assumed: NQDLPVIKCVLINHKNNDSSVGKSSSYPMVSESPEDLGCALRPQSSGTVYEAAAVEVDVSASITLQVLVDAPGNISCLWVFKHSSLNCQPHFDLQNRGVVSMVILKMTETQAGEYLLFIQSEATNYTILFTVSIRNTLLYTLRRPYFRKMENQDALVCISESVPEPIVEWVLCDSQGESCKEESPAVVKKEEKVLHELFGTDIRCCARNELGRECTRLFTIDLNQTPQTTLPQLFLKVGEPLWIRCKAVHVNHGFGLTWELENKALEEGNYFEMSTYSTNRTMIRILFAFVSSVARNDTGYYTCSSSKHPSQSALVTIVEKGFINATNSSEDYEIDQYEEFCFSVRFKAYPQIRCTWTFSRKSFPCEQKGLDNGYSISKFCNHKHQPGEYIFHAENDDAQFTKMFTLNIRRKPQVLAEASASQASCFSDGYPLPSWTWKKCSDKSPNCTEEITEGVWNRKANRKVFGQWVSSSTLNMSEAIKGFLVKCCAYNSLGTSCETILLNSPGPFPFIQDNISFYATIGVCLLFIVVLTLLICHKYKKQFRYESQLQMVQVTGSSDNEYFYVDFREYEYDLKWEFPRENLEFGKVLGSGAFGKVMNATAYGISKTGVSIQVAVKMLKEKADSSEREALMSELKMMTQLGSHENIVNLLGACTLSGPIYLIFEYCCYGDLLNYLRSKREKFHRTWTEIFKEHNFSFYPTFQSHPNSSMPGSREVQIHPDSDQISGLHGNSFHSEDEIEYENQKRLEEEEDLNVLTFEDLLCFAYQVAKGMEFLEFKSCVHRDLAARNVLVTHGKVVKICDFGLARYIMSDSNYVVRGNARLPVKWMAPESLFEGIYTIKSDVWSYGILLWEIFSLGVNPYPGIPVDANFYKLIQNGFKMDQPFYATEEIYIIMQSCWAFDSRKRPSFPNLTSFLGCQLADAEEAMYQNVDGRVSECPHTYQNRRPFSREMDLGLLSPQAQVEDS

What was measured:
[1] = tested on: MdaMb231 cells; test: BrdU cell proliferation assay
[2] = tested on: MdaMb231 (breast cancer) cell line; test: sulforhodamine B (SRB) cytotoxicity assay
[3] = tested on: PC-3 (prostate cancer) cell line; test: sulforhodamine B (SRB) cytotoxicity assay; conditions: read-out: IC50 Measured Against PC-3 Cell Line; 100 μM highest concentration, diluted 1:5; 3 day incubation
[4] = tested on: U266B1 (multiple myeloma) cell line; test: sulforhodamine B (SRB) cytotoxicity assay; conditions: read-out: IC50 Measured Against U266B1 Cell Line; 100 μM highest concentration, diluted 1:5; 3 day incubation
[5] = tested on: MV4-11 (leukemia) cell line; test: sulforhodamine B (SRB) cytotoxicity assay
[6] = target: MLCK (Homo sapiens, UniProt Q9H1R3); test: Kinase EC50 (10 pt curve or estimate, ATP Kmapp); assay type: biochemical; conditions: read-out: EC50 MLCK; from 10 pt curve or estimate based on 1 μm inhibition assay at ATP Kmapp
[7] = target: CSF-1R (Homo sapiens, UniProt P07333); test: Kinase EC50 (10 pt curve or estimate, ATP Kmapp); assay type: biochemical; conditions: read-out: EC50 CSF-1R; from 10 pt curve or estimate based on 1 μm inhibition assay at ATP Kmapp
[8] = target: T1, FLT3 (Homo sapiens, UniProt P36888); test: Kinase EC50 (10 pt curve or estimate, ATP Kmapp); assay type: biochemical; conditions: read-out: EC50 Flt3; from 10 pt curve or estimate based on 1 μm inhibition assay at ATP Kmapp
[9] = target: FLT3 D835Y (Homo sapiens, UniProt P36888, D835Y); test: Kinase EC50 (10 pt curve or estimate, ATP Kmapp); assay type: biochemical; conditions: read-out: EC50 Flt3-D835Y; from 10 pt curve or estimate based on 1 μm inhibition assay at ATP Kmapp
[10] = tested on: MdaMb231 cells; test: in vitro scratch (cell migration) assay; assay type: cell-based; conditions: Table 5 summary; concentration inhibiting migration
Method: Compounds of Table 5 were tested in comparison with Symadex and Sutent™ (sunitinib) for their ability to inhibit the migration of MdaMb231 cells. The in vitro scratch assay is used to determine the ability of cancer cells to migrate into and close an open wound; such migration is considered to have a role in metastasis of tumor cells.
Cells were plated in gelatin-coated 6-well plates and grown until a confluent monolayer was formed. When confluent, a straight scratch was made with a p200 pipette tip, cells were washed and compounds were added at concentrations of 1 μM, 2.5 μM, 5 μM, 10 μM and 20 μM. Images were taken at specific reference points at 0, 24 and 48 hours with Zeiss Axiovert 40 CFL microscope and Axiocam MRc5 camera and the ability of the cells to move in and close the wound was measured.
The data is presented in FIG. 1, which is a bar plot of percent cell migration into the “wound” in each sample (measured with respect to the control) and FIG. 2, which is a plot of percent wound confluence as a function of time (measured with respect to the control).

[11] = target: T1, FLT3; test: SelectScreen FLT3 kinase dose response assay; assay type: biochemical; conditions: ATP 100 micromolar

pEC50 [6]: 7.74
pEC50 [7]: 6.82
pEC50 [8]: 8.30
pEC50 [9]: 8.15
FLT3 Inhibition E1000 (percent inhibition at 1000 nMolar) ([11]; 1000 nMolar compound): 100%
pEC50 ([11]; read-out: FLT3 Inhibition EC50, dose response, 4 parameter Hill equation): 8.70
SMILES: CN(C)CCCCNc1ccc2ncn3c4ccc5[nH]ncc5c4c(=O)c1c23
concentration at which cell proliferation was inhibited (BrdU) ([1]; MdaMb231 cells, 24 hour treatment): 20 µM
BrdU (Inhibition of cell proliferation) ([1]; Table 5 summary, concentration inhibiting proliferation): 10 μm
pIC50 ([2]; read-out: IC50 Measured Against MdaMb231 Cell Line, 100 μM highest concentration, diluted 1:5 (two series), 3 day incubation): 5.28
pIC50 ([2]; read-out: IC50 SRB assay Mda MB-231, Table 5 summary): 5.28
pIC50 [3]: 5.48
pIC50 [4]: 4.91
pIC50 ([5]; read-out: IC50 Measured Against MV4-11 Cell Line, 100 μM highest concentration, diluted 1:5, 3 day incubation): > 9.00
pIC50 ([5]; read-out: IC50 SRB assay MV4-11, Table 5 summary): > 9.00
Migration [10]: 2.5 μm

pEC50, pIC50: −log10 of the molar value. Read-outs that look alike come from different tables or passages of the source. The match of structure and compound is tentative.
